This data set concerns the target T1, G5C (Gemin5 841-1508) wild type (Homo sapiens) (UniProt Q8TEQ6).
T1 sequence (looked up): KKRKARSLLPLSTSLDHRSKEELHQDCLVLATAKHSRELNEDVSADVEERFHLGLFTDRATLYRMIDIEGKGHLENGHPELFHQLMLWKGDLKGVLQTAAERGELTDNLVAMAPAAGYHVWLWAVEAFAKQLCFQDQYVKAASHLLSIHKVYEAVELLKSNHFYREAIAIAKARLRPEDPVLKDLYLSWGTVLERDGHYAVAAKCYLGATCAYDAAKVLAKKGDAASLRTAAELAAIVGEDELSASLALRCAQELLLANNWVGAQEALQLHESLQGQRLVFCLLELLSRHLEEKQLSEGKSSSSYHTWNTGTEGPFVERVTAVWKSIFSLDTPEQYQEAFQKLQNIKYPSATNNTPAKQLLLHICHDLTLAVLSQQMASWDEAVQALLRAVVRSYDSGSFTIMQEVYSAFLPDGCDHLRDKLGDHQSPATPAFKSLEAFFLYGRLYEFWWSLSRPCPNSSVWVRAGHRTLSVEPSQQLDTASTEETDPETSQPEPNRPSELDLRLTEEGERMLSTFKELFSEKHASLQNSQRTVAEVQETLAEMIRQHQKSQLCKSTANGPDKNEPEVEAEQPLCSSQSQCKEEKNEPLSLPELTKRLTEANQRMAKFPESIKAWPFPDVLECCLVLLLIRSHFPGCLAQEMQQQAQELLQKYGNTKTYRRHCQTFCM
The data set can be described thus: fluorescence polarization. To be noted: 40 nM RNA; FP: 20 mM Tris-HCl pH 7.5, 150 mM NaCl, 10 nM RNA (40 nM U7), protein 0-41 uM, temperature not stated; recombinant protein; residues 841-1508; protein details: N-terminal His6 removed by TEV; label: 5' 6-FAM.

Tags and fusion partners may be left off the protein sequences shown.

For orientation: Kd means the constant that tells how readily two partners part at equilibrium. UUUUUUU [poly-U (U7)]: the Kd is over 500 µM.

The record behind these values is PMC9440017, “Structural basis for Gemin5 decamer-mediated mRNA binding” (Nature Communications, 2022).
